Where “and” joins values, the source holds several entries; their conditions need not be identical. Identical values can stand only once. Counter-ions that a name gives are not always drawn. ± gives the standard deviation of the averaged measurements. Some of the results follow. Plates or batches differ in their baseline, so values are only roughly comparable.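 Culture-activated primary human stellate myofibroblasts, where regained lipid droplets signal inactivation. Value: share of Hoechst-counted cells above a per-plate Bodipy cutoff, in duplicate wells, with DMSO negative and nortriptyline positive controls on each plate. Hits: a control-normalized score above the plate's top-tenth-percentile nortriptyline wells, or one of a plate's three best wells. Final well concentrations are not given.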
Tested on: primary human hepatic stellate cells (donor 1)
Test: percent Bodipy-positive cells; higher = more lipid droplet accumulation
Conditions: 48 h
Description: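 Primary lipid accumulation screen in primary human hepatic stellate cell myofibroblasts (donor 1, passage 8) in 384-well plates. 100 nL of library compound was pin-transferred into 30 µL medium in duplicate, and cells were treated for 48 h. The 'Scaled' score combines distance from plate baseline, toxicity and reproducibility penalties, and is normalised to nortriptyline (positive) and DMSO (negative) controls on each plate. A hit is defined as scaled >0.85 or among the top 3 wells per plate.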

[1] = library stock concentration: 2 mM
[2] = library stock concentration: 80 uM
[3] = library stock concentration: 400 uM
[4] = library stock concentration: 10 mM
[5] = library stock concentration: 3.33 mM
[6] = library stock concentration: 1 mM
[7] = library stock concentration: 8.8 mM

COc1cc2nccc(Oc3ccc(NC(=O)Nc4cc(C)on4)c(Cl)c3)c2cc1OC [AV951 (KRN951, Tivozanib) (2 mM)]
percent Bodipy-positive cells [1]: 30.3 ± 15%

COc1cc2nccc(Oc3ccc(NC(=O)Nc4cc(C)on4)c(Cl)c3)c2cc1OC
percent Bodipy-positive cells [2]: 6.57 ± 1.5% | percent Bodipy-positive cells [3]: 7.53 ± 4.1% | percent Bodipy-positive cells [1]: 12.5 ± 1.4% | percent Bodipy-positive cells [4]: 34.9 ± 5.4%

COc1cc2nccc(Oc3ccc(NC(=O)Nc4cc(C)on4)c(Cl)c3)c2cc1OC [VEGFR Tyrosine Kinase Inhibitor IV]
percent Bodipy-positive cells [5]: 12.7 ± 1.3%

COc1cc2nccc(Oc3ccc(NC(=O)Nc4cc(C)on4)c(Cl)c3)c2cc1OC [AV951 (KRN951, Tivozanib) (10 mM)]
percent Bodipy-positive cells [4]: 63.7 ± 8.3%

COc1cc2nccc(Oc3ccc(NC(=O)Nc4cc(C)on4)c(Cl)c3)c2cc1OC [Tivozanib (AV-951)]
percent Bodipy-positive cells [5]: 13.6 ± 0.69% | percent Bodipy-positive cells [4]: 34.3 ± 5.4%

COc1cc2nccc(Oc3ccc(NC(=O)Nc4cc(C)on4)c(Cl)c3)c2cc1OC [AV951 (KRN951, Tivozanib) (0.4 mM)]
percent Bodipy-positive cells [3]: 14.9 ± 5.7%

CC(C)(C#N)c1cc(Cn2cncn2)cc(C(C)(C)C#N)c1
percent Bodipy-positive cells [4]: 7.9 ± 4.5%

CC(C)(C#N)c1cc(Cn2cncn2)cc(C(C)(C)C#N)c1 [Anastrozole]
percent Bodipy-positive cells [5]: 5.57 ± 0.41% | percent Bodipy-positive cells (library stock concentration: 6.8 mM): 7.2 ± 1.2% | percent Bodipy-positive cells [4]: 18.4 ± 10%

C(=C/CCN(C)C)(/c1c2cccc1)\c3c(cccc3)CC2.Cl [Amitriptyline hydrochloride]
percent Bodipy-positive cells [4]: 97.7 ± 0.98%

CCCCCCCCCCCCCCC[C@H](O)[C@H](N)CO (racemic) [DL-erythro-Dihydrosphingosine]
percent Bodipy-positive cells [4]: 100%

COC(=O)/C=C/c1cc(O)ccc1O [Methyl 2,5-dihydroxycinnamate]
percent Bodipy-positive cells [4]: 20.2 ± 3.1%

CC(=O)c1ccc2c(c1)N(CCCN(C)C)c1ccccc1S2 [Acepromazine maleate]
percent Bodipy-positive cells (library stock concentration: 4.5 mM): 60.9 ± 3.5%

CC(=O)c1ccc2c(c1)N(CCCN(C)C)c1ccccc1S2 [Acetopromazine maleate salt]
percent Bodipy-positive cells: 71.6 ± 2%

COc1cccc(-c2cc(=O)c3ccccc3o2)c1N
percent Bodipy-positive cells [6]: 15.5 ± 13% | percent Bodipy-positive cells [5]: 12% and 15.2% | percent Bodipy-positive cells [4]: 17.7% and 22.3% and 10.9% | percent Bodipy-positive cells (library stock concentration: 18.7 mM): 23.4 ± 3.8%

COc1ccc(N(C(=O)Oc2cc(C(=O)Nc3cccc(C(F)(F)F)c3)ccc2C)c2ccnc(Nc3ccc(N4CCN(C)CC4)cc3)n2)c(OC)c1
percent Bodipy-positive cells [2]: 16.9 ± 1.4% | percent Bodipy-positive cells [3]: 31.4 ± 1.8% | percent Bodipy-positive cells [1]: 49.4 ± 3.7% | percent Bodipy-positive cells [4]: 99 ± 1.4%

CNC(=O)c1cccc(-c2ccc3c(N4CCOC[C@@H]4C)nc(N4CCOC[C@@H]4C)nc3n2)c1
percent Bodipy-positive cells [2]: 8.89 ± 0.28% | percent Bodipy-positive cells [3]: 6.34 ± 0.56% | percent Bodipy-positive cells [1]: 4.61 ± 0.99% | percent Bodipy-positive cells [5]: 4.99 ± 0.63% | percent Bodipy-positive cells [4]: 12.1% and 9.19%

C=CCNC(N)=S [Allylthiourea]
percent Bodipy-positive cells [5]: 10.1 ± 0.83% | percent Bodipy-positive cells [4]: 22.9 ± 11%

C=CCNC(N)=S
percent Bodipy-positive cells [4]: 35.3 ± 7.9%

CN(C)CCOC(C)(c1ccccc1)c1ccccn1 (configuration not stated) [Doxylamine Succinate]
percent Bodipy-positive cells [5]: 7.95 ± 3.1% | percent Bodipy-positive cells [4]: 43.8 ± 4.8%

CN(C)CCOC(C)(c1ccccc1)c1ccccn1 (configuration not stated)
percent Bodipy-positive cells [4]: 6.94 ± 1.4%

CN(C)CCOC(C)(c1ccccc1)c1ccccn1 (configuration not stated) [Doxylamine succinate]
percent Bodipy-positive cells: 61.9 ± 30% | percent Bodipy-positive cells (library stock concentration: 5.1 mM): 2.29 ± 0.21%

OC(CCCN1CCN(c2ncc(F)cn2)CC1)c1ccc(F)cc1 (configuration not stated)
percent Bodipy-positive cells [4]: 14 ± 4.8%

COc1cc(/C=C/C(N)=O)cc(OC)c1OC
percent Bodipy-positive cells [4]: 44.5 ± 0.7%

O=C1c2ccc(O)c(O)c2C(=O)c2c(O)ccc(O)c21 [Quinalizarin]
percent Bodipy-positive cells [4]: 41.9 ± 11%

CCc1cc(Nc2nccc(-c3c(-c4ccc(OC)c(C(=O)Nc5c(F)cccc5F)c4)nc4ccccn34)n2)c(OC)cc1N1CCC(N2CCN(S(C)(=O)=O)CC2)CC1
percent Bodipy-positive cells [2]: 10.5 ± 4.6% | percent Bodipy-positive cells [3]: 9.22 ± 3.3% | percent Bodipy-positive cells [1]: 7.08 ± 4.1% | percent Bodipy-positive cells [5]: 8.05 ± 1.4% | percent Bodipy-positive cells [4]: 8.39% and 11.6%

CN(C(=O)C(Cl)Cl)c1ccc(OC(=O)c2ccco2)cc1 [Diloxanide furoate]
percent Bodipy-positive cells: 8.91 ± 0.62% | percent Bodipy-positive cells (library stock concentration: 6.1 mM): 9.08 ± 6.1%

Nc1ccn([C@H]2CC[C@@H](CO)O2)c(=O)n1
percent Bodipy-positive cells [4]: 8.89 ± 1.7%

Nc1ccn([C@H]2CC[C@@H](CO)O2)c(=O)n1 [2',3' - dideoxycytidine]
percent Bodipy-positive cells (library stock concentration: 9.5 mM): 4.81 ± 1.9%

Nc1ccn([C@H]2CC[C@@H](CO)O2)c(=O)n1 [Zalcitabine]
percent Bodipy-positive cells: 9.74 ± 0.11% | percent Bodipy-positive cells [5]: 13.7 ± 6.9% | percent Bodipy-positive cells [4]: 18.1 ± 5.1%

Nc1ccn([C@H]2CC[C@@H](CO)O2)c(=O)n1 [2',3'-dideoxycytidine]
percent Bodipy-positive cells [4]: 18.3 ± 1.6%

CN1CCC(Nc2ncc3ncnc(Nc4ccc(F)c(Cl)c4)c3n2)CC1.Cl.Cl [BIBX 1382 dihydrochloride]
percent Bodipy-positive cells [4]: 95.3 ± 0.97%

CCCCC[C@@H](O)/C=C/[C@@H]1[C@@H](C/C=C\CCCC(=O)O)[C@@H](O)C[C@H]1O [15(R)-Prostaglandin F2.alpha.]
percent Bodipy-positive cells [6]: 26.2 ± 7.7%

COc1ccc(-n2c(SCCCN3C(=O)c4cccc5cccc(c45)C3=O)nnc2-c2ccncc2)cc1
percent Bodipy-positive cells [5]: 34.5 ± 6.8% | percent Bodipy-positive cells [4]: 45.9 ± 4.5%

COc1cc2c(Nc3ccc(NC(=O)c4ccccc4)cc3)ncnc2cc1OCCCN1CCOCC1
percent Bodipy-positive cells [4]: 98.37 ± 0.33%

CCCN(C/C=C/I)C1CCc2cccc(O)c2C1 (configuration not stated) [8-Hydroxy-PIPAT oxalate]
percent Bodipy-positive cells [4]: 39.9 ± 16%

Cc1cccc(CC(=O)N2CCc3c2ccc(-c2cn(C)c4ncnc(N)c24)c3F)n1
percent Bodipy-positive cells [5]: 9.16 ± 2.8% | percent Bodipy-positive cells [4]: 45.1 ± 20%

CCN(CC)CCNC(C(=O)OCCC(C)C)c1ccccc1 (configuration not stated)
percent Bodipy-positive cells [4]: 74.9 ± 6.9%

CCCCC[C@H](O)/C=C/[C@@H]1[C@@H](C/C=C\CCCC(=O)OC(C)C)[C@@H](O)C[C@H]1O [Prostaglandin F2.alpha. isopropyl ester]
percent Bodipy-positive cells [6]: 10.7 ± 1.1%

C[C@@H]1C[C@H]2[C@@H]3CCC4=CC(=O)C=C[C@]4(C)[C@@]3(F)[C@@H](O)C[C@]2(C)[C@@]1(O)C(=O)COP(=O)(O)O [Dexamethasone sodium phosphate]
percent Bodipy-positive cells [4]: 10.1 ± 0.31%

C(=C\c1ccccc1)/CN1CCN(C(c2ccccc2)c2ccccc2)CC1 [Cinnarazine]
percent Bodipy-positive cells (library stock concentration: 5.4 mM): 50.1 ± 7.2% | percent Bodipy-positive cells [4]: 62.928 ± 0.05%

O=C1O/C(=C/Br)CC[C@@H]1c1cccc2ccccc12 [(R)-Bromoenol lactone]
percent Bodipy-positive cells [6]: 20.6 ± 3%

Cc1c(-c2cnccn2)ssc1=S [Oltipraz]
percent Bodipy-positive cells [7]: 5.74 ± 1%

NO [Hydroxylamine hydrochloride]
percent Bodipy-positive cells [4]: 37.7 ± 8.9%

Cc1cc(C)c(S(=O)(=O)Nc2ccccc2C(F)(F)F)c(C)c1
percent Bodipy-positive cells [4]: 11.7 ± 3.9%

O=c1[nH]c2ccccc2n1CCCN1CCN(C(c2ccccc2)c2ccccc2)CC1 [Oxatomide]
percent Bodipy-positive cells (library stock concentration: 4.7 mM): 22.6 ± 0.11%

Nc1nc(Cl)nc2c1ncn2[C@@H]1O[C@H](CO)[C@@H](O)[C@H]1O [2-Chloroadenosine]
percent Bodipy-positive cells [4]: 85.5 ± 4.5%

Nc1nc(Cl)nc2c1ncn2[C@@H]1O[C@H](CO)[C@@H](O)[C@H]1O
percent Bodipy-positive cells [4]: 24.7 ± 4.7%

O=c1c(O[C@@H]2O[C@H](CO)[C@H](O)[C@H](O)[C@H]2O)c(-c2ccc(O)c(O)c2)oc2cc(O)cc(O)c12
percent Bodipy-positive cells [7]: 11 ± 2.1%
